In patent publication US20210401931A1, “METHODS AND MATERIALS FOR TREATING CANCER” (Mayo Foundation for Medical Education and Research, priority 2018, published 2021) one finds binding data, which are given here for 5 molecules.

Protein sequences, listed by entry. Tags and fused reporters are not part of them. Lines headed by an entry give the natural chain unless they say otherwise; changes in a name come on top.
UniProt Q04206: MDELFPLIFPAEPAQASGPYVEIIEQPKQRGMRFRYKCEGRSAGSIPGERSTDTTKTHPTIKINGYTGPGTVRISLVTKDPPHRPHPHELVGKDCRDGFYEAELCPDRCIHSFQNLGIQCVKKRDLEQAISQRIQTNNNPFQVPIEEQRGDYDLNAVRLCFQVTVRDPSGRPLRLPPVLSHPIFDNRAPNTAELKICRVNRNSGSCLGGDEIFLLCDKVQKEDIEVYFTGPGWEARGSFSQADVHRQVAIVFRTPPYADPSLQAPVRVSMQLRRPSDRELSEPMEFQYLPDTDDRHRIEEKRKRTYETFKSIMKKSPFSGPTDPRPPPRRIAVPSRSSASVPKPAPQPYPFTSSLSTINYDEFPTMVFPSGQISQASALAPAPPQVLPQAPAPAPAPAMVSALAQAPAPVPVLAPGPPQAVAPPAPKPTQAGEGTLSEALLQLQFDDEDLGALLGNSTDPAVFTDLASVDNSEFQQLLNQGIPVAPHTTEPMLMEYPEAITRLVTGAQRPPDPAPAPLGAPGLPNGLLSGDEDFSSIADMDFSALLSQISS

Results are given in words; binding and its absence hold for the method and conditions named. For some assays here: In cells and extracts the contact can be indirect. Some results given as binding are weak or reduced against the parent protein; the word gives no strength. For some assays here: Where a sequence is shown, tags or fusion partners need not be part of it.

For test [1], the target named is T1, RB-N expressed in transfected PC-3 cells (human) (UniProt P06400).
T1 sequence (looked up): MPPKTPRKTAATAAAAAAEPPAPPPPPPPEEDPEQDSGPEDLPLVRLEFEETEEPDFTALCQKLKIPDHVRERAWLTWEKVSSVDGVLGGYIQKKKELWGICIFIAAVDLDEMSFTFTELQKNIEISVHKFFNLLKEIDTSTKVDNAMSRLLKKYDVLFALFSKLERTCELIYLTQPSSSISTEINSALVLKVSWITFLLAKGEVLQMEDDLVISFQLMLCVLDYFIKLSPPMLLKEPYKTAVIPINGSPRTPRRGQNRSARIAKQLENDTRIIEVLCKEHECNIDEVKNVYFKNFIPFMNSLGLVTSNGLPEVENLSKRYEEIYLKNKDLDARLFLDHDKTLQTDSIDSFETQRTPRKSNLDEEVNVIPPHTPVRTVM
The test can be described thus: GST pull down from transfected PC-3 whole cell lysate (FIG. 15, lower panel).

Test [2] addresses T2, retinoblastoma protein RB (endogenous) (human, UniProt P06400 2-928).
T2 construct: Endogenous protein of cell lysates, phosphorylation state as in the cells; also called RB1; endogenous RB
T2 sequence (looked up): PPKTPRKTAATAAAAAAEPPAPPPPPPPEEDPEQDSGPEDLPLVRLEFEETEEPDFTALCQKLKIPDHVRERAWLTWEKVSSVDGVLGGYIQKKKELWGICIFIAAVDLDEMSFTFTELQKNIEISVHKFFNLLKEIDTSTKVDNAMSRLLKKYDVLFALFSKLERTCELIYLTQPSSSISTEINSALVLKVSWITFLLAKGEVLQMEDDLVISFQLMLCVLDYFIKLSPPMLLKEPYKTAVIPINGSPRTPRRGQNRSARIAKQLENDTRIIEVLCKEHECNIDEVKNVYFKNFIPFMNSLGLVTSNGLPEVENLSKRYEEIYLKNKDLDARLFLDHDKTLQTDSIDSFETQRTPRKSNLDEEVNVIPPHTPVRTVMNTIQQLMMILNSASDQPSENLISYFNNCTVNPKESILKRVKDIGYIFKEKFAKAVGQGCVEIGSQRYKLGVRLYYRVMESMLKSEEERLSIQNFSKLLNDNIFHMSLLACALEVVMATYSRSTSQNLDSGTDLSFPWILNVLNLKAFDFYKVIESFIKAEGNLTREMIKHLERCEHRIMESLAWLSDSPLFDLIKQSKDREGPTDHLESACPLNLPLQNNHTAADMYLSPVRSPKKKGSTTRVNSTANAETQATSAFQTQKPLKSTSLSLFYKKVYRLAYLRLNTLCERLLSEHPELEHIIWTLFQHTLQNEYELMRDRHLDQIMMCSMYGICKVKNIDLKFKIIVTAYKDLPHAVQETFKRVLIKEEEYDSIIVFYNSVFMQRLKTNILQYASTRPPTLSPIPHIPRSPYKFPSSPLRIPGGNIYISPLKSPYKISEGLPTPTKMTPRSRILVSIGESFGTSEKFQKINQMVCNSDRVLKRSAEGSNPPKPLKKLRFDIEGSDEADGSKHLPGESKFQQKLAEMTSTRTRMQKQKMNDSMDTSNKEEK
The test can be described thus: GST pull down from PC-3 whole cell lysate, western blot.

For test [3], the target named is T3, HA-RB wild-type (pCMV HA hRB-wt) (human) (UniProt P06400).
T3 sequence (looked up): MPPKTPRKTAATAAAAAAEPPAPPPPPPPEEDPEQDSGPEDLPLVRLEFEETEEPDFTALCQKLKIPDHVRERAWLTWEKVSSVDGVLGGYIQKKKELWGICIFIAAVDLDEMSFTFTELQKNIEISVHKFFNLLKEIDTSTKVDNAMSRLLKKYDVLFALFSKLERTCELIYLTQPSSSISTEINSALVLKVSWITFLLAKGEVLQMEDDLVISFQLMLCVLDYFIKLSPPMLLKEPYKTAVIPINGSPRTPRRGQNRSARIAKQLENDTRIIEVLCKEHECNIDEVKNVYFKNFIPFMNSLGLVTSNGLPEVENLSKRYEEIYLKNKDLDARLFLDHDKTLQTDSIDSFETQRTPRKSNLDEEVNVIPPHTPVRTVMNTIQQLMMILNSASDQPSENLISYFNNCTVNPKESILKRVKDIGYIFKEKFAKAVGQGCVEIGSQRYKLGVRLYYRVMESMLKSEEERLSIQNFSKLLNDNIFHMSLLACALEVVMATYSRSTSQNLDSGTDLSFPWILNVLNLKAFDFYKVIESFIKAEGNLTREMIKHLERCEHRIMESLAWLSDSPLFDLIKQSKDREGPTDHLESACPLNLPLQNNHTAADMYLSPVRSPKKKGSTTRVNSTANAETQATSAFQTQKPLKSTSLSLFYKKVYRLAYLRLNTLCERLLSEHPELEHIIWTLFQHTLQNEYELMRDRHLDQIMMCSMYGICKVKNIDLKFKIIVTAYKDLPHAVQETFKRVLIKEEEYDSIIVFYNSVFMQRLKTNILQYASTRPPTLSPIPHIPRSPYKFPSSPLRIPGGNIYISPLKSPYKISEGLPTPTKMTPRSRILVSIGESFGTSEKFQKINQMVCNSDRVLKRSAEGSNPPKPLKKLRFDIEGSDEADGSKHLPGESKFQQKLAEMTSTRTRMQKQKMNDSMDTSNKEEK
Kind of test: GST pull down of HA-RB from transfected PC-3 lysate (FIG. 3D).

The target in test [4] is T2, retinoblastoma protein RB (endogenous). Kind of test: GST pull down from PC-3 whole cell lysate, western blot (FIG. 2B). In general terms: In western blotting, separated proteins are transferred to a membrane and probed.
Test [5] has as its target T4, p65 NFκB protein (human, UniProt Q04206 1-551).
T4 construct: The same entry is used for endogenous p65 and for in vitro translated p65; which one stood in the assay is told under assay; also called endogenous p65; in vitro transcribed and translated p65 (pCMV4 p65)
The test can be described thus: co-IP from transfected cells (FIG. 10).

Test [6] concerns the target T4, p65 NFκB protein. Kind of test: co-IP from transfected 293T cells (FIG. 10E).
Test [7] concerns the target GST-p65-N (human) (UniProt Q04206). Kind of test: in vitro protein binding assay (FIG. 10).
The target is the same in test [8]. The test can be described thus: in vitro protein binding assay (FIG. 10F).
Test [9] has as its target T1, RB-N expressed in transfected PC-3 cells (human). Kind of test: GST pull down from transfected PC-3 whole cell lysate (FIG. 19G, lower panel).

Consider GST-p65-N (from UniProt Q04206 1-306), for which the binding entry in test [1], in test [2], in test [3] and in test [4] was “binds” each time.

In the case of NGDPRDPRRGQNRSARIAKQL (peptide, UniProt P06400 247-267, looked up, not shown: small tags and cut ends) [SFB-tagged RL-S249D/T252D peptide], the binding result in the test with p65 NFκB protein [5] and with p65 NFκB protein [6] was “binds” in each case.

NGAPRAPRRGQNRSARIAKQL (peptide, UniProt P06400 247-267, looked up) [in vitro transcribed and translated RL-S249A/T252A peptide]: the binding entry in the test with GST-p65-N (human) [7] and in the test with GST-p65-N (human) [8] was “binds” each time.

B1: GST-EID1-N wild-type (protein, UniProt Q9Y6B2 1-177, looked up, not shown: a dimerising Fc or GST)
chain: MSEMAELSELYEESSDLQMDVMPGEGDLPQMEVGSGSRELSLRPSRSGAQQLEEEGPMEEEEAQPMAAPEGKRSLANGPNAGEQPGQVAGADFESEDEGEEFDDWEDDYDYPEEEQLSGAGYRVSAALEEADKMFLRTREPALDGGFQMHYEKTPFDQLAFIEELFSLMVVNRLTEE
Regarding B1, the binding result in test [9] is given as “binds”.

Consider NGDPRDPRRGQNRSARIAKQL (peptide, UniProt P06400 247-267, looked up) [in vitro transcribed and translated RL-S249D/T252D peptide], for which the binding entry with GST-p65-N (human) [7] and with GST-p65-N (human) [8] was “binds” in each case.
